Test results published in article PMC10111864.
No constants are given. Whether binding was seen depends on the method and setting. In cells and extracts the contact can be indirect. Some binding calls cover weakened binding; strength is not graded here. Tags and fused reporters may be left off the sequences shown.

The chains behind the UniProt entries cited, without tags or fusion partners.
UniProt Q60598: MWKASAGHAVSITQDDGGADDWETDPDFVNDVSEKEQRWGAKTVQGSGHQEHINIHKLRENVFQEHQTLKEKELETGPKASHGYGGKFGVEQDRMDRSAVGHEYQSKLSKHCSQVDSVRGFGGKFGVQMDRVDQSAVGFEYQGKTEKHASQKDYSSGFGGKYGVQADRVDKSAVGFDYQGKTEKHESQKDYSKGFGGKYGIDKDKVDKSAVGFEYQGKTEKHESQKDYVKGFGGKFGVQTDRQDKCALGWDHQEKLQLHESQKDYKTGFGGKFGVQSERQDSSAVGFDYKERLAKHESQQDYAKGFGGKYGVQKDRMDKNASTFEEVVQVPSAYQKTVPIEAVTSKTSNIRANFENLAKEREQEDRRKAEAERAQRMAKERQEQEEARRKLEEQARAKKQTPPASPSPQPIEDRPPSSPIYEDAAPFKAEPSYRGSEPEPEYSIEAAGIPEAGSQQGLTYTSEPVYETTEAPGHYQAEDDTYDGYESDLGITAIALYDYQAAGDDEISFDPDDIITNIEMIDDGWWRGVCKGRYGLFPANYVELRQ

Tests used:
[1] = target: T1, KIF1C (endogenous, untagged) (mouse (endogenous in YUMM1.7)) (UniProt O35071); assay: co-IP; α-KIF1C antibody (2 μg), protein G Dynabeads, lysates of untagged Kif1c+/+ and Kif1c ΔGA1,2 YUMM1.7 cells (3-4 mg total protein), Western blot; washes 50 mM Tris pH 7.4, 150 mM NaCl, 0.02% NP-40
T1 sequence: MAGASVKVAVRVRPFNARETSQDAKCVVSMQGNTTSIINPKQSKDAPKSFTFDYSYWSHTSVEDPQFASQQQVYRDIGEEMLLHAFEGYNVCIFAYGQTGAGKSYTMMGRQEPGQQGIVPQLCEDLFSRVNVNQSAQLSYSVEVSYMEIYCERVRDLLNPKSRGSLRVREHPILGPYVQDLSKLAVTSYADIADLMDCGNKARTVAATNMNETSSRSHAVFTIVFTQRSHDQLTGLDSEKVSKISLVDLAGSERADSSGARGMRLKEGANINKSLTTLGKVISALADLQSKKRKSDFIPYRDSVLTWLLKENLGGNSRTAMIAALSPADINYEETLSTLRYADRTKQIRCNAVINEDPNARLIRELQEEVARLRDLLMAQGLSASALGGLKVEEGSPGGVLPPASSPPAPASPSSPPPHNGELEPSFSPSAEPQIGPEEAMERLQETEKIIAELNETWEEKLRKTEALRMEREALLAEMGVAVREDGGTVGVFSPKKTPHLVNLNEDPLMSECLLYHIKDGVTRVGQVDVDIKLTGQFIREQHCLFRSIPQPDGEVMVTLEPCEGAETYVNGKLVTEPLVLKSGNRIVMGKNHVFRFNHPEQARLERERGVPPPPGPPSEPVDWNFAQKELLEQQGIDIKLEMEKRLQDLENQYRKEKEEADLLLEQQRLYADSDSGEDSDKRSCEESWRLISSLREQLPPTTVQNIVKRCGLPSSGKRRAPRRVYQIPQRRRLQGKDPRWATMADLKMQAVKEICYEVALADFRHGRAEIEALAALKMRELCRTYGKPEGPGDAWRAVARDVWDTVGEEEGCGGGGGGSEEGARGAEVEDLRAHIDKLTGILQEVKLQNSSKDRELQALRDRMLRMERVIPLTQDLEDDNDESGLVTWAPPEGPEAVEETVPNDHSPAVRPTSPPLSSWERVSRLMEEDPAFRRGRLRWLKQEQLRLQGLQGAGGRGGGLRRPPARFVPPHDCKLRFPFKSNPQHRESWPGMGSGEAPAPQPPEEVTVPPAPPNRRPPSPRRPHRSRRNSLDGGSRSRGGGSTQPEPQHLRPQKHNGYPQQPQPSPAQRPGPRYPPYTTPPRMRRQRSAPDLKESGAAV

[2] = target: T2, KIF1C:mCherry (endogenous KIF1C tagged at the C terminus with mCherry) (mouse (endogenous in YUMM1.7)) (UniProt O35071); assay: co-IP; α-mCherry antibody (10 μg, Invitrogen 16D7), protein G Dynabeads, lysates of KIF1C:mCherry-tagged YUMM1.7 cell lines (+/+ and ΔGA1,2), Western blot; washes 50 mM Tris pH 7.4, 150 mM NaCl, 0.02% NP-40
T2 sequence: T1 sequence

Row | Substance | binding [1] | binding [2]
1 | TPM1 (from UniProt P58771 1-284) | binds | binds
2 | CTTN (from UniProt Q60598 1-546) | binds | binds
